Results on 32 targets are retold here after the supplement of paper PMC10849652.

By UniProt entry, the sequences of proteins in these tests, tags left out. Where a name states a change or a piece, a line headed by the entry shows the natural chain unless it says otherwise.
UniProt P23919: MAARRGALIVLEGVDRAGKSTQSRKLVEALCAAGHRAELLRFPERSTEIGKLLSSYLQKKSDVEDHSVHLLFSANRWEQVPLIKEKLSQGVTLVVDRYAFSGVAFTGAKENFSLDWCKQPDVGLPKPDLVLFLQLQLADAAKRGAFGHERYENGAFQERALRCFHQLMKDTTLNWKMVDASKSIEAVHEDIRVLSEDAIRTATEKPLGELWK
UniProt P41567, whole entry, looked up: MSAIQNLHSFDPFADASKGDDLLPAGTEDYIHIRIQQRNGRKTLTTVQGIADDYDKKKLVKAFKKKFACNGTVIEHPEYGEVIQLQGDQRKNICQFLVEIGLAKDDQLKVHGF
UniProt P47813, whole entry, looked up: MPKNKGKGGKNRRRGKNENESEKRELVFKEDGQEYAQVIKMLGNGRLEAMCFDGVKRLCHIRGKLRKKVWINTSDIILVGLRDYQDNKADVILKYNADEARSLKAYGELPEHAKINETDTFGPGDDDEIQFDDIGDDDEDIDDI
UniProt Q13011: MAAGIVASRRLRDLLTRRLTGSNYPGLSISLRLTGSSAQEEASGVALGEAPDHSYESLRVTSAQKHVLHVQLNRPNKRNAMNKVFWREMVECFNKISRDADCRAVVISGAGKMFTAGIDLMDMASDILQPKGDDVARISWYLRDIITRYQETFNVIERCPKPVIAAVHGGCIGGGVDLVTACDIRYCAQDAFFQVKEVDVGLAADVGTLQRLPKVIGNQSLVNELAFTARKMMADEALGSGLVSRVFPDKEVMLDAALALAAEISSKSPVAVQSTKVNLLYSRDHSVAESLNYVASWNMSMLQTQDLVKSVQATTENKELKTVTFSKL
UniProt P24534: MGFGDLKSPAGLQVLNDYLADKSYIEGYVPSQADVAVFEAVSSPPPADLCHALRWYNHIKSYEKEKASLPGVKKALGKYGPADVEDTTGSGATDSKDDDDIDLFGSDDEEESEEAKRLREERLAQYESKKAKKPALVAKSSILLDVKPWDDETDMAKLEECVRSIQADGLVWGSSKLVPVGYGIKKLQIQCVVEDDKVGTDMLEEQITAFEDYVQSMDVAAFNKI
UniProt Q96DC8: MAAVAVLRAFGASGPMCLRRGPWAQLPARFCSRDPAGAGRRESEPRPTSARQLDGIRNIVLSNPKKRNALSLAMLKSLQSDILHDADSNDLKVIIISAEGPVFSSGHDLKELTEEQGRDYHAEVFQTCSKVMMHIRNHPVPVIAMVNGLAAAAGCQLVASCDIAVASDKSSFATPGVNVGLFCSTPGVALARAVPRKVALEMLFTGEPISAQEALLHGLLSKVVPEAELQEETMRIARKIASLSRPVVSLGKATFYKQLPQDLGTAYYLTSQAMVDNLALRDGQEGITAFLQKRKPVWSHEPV
UniProt Q01658: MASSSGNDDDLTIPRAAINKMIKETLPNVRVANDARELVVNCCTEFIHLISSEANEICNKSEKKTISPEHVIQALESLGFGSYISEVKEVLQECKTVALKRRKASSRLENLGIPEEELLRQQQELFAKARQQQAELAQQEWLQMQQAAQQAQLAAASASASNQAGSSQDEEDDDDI
UniProt P63172, whole entry, looked up: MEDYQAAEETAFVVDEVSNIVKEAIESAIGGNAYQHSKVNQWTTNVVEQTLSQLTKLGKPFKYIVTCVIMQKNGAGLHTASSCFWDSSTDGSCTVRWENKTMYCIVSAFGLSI
UniProt Q9BVJ7: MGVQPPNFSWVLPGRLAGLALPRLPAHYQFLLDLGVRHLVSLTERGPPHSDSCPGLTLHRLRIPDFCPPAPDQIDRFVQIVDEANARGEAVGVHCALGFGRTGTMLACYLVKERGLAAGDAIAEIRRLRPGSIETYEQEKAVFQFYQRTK
UniProt Q7Z2Z2: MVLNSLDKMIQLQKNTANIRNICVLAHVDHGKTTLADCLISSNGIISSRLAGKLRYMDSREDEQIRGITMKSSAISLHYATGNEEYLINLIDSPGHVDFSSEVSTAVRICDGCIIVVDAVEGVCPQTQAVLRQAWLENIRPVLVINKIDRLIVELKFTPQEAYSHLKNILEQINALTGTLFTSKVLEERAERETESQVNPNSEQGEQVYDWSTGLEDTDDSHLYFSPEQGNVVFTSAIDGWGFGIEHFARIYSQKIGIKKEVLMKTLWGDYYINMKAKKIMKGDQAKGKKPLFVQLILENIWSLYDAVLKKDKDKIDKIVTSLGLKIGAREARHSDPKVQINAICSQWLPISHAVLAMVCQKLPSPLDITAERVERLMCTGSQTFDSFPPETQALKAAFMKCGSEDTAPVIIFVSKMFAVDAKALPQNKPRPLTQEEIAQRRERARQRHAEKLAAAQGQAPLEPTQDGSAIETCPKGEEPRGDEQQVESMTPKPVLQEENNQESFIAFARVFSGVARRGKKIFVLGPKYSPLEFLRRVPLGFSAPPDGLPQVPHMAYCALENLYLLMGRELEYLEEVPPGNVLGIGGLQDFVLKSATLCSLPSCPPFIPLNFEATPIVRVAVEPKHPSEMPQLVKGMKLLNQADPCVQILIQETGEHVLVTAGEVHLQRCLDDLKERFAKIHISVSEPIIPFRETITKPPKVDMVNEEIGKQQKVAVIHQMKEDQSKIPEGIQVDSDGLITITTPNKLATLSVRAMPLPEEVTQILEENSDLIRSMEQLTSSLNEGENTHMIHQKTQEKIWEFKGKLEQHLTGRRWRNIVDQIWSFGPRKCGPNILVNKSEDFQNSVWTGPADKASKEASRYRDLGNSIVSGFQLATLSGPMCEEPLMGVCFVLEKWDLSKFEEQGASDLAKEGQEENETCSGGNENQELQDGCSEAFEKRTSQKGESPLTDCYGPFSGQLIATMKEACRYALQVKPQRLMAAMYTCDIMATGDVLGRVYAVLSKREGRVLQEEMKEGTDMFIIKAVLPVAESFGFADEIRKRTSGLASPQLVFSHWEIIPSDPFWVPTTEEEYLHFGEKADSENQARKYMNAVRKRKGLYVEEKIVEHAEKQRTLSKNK
UniProt O60869: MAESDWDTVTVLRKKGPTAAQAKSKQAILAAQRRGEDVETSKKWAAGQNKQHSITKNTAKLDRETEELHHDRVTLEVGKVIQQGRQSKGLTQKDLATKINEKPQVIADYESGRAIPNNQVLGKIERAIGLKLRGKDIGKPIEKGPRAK
EEF1AKMT2, A0A494BZY7, UniProt A0A494BZY7, whole entry, looked up: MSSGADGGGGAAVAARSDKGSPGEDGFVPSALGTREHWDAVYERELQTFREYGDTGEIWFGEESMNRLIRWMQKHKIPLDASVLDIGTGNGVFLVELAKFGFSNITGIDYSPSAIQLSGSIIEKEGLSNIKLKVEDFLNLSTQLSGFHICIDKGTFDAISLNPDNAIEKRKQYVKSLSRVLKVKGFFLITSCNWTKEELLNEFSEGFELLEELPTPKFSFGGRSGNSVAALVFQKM
UniProt Q16254: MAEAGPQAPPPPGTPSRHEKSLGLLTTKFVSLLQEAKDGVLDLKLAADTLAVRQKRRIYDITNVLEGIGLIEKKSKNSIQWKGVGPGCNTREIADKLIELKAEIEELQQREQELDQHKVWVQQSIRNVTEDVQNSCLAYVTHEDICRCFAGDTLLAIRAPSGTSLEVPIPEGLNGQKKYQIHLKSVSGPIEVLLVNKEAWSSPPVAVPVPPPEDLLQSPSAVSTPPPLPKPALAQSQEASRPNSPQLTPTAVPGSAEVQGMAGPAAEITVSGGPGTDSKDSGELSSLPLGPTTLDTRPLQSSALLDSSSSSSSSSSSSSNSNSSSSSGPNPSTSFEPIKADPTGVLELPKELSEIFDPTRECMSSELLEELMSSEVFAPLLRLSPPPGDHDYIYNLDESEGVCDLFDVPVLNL
UniProt Q9UNI6, whole entry, looked up: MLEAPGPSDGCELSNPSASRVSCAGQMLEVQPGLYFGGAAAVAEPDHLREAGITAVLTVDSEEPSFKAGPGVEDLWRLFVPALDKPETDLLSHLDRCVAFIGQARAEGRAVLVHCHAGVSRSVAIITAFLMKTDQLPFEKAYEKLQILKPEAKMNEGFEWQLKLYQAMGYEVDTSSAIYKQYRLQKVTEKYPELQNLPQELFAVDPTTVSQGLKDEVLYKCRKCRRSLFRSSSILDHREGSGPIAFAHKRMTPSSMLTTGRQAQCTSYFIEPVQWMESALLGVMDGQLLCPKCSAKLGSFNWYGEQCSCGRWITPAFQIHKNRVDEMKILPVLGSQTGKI
UniProt Q14126: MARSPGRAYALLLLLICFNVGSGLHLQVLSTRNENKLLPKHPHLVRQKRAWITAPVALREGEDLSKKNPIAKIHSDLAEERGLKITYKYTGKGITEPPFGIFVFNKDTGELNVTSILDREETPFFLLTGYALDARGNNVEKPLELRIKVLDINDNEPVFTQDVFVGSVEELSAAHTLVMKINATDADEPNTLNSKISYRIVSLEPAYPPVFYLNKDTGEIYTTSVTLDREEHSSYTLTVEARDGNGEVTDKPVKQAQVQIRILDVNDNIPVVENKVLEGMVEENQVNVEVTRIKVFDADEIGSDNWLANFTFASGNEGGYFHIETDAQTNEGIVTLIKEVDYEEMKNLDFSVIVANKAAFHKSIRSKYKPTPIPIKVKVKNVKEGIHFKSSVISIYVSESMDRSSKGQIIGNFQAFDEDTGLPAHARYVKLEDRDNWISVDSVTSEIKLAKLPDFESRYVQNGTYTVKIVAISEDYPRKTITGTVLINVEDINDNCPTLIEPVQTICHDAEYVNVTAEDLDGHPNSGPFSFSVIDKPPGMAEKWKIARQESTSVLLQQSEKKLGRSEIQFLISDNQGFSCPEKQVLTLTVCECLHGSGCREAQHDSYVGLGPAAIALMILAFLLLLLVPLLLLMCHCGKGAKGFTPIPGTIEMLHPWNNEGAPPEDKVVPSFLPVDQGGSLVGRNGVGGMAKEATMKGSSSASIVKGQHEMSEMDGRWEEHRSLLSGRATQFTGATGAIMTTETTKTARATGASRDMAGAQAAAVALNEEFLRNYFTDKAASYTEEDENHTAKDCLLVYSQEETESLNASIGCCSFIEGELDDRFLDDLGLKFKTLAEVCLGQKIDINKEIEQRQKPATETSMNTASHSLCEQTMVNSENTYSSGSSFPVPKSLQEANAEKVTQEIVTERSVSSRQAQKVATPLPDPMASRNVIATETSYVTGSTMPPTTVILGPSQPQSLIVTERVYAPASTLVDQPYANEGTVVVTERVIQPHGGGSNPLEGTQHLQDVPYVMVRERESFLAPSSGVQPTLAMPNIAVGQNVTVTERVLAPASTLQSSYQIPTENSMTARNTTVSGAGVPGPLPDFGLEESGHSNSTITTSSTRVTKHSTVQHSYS
UniProt Q9BZQ6: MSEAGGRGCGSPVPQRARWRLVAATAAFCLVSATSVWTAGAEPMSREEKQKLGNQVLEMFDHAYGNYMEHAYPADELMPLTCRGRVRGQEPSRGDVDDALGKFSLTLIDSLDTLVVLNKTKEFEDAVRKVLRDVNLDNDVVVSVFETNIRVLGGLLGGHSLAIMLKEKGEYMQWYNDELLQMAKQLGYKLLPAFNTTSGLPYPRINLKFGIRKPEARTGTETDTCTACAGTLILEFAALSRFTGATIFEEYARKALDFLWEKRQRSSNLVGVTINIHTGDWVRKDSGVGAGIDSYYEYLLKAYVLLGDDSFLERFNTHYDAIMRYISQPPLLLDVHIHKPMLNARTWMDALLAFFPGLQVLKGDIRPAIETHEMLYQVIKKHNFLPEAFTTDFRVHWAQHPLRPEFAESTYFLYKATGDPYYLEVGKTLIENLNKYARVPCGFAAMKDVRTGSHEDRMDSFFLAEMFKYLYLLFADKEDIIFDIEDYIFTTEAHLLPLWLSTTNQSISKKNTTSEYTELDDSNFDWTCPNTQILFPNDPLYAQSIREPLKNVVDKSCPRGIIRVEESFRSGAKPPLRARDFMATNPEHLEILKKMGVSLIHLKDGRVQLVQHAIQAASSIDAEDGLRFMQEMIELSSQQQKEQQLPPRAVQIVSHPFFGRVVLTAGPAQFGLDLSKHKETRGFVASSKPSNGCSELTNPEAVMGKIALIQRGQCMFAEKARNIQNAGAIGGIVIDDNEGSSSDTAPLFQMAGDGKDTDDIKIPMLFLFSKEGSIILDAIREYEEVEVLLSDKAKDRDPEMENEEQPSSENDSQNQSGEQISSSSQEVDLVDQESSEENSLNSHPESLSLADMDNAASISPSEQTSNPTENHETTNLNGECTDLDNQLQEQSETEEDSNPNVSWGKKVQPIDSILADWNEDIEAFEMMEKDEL
UniProt P26641, whole entry, looked up: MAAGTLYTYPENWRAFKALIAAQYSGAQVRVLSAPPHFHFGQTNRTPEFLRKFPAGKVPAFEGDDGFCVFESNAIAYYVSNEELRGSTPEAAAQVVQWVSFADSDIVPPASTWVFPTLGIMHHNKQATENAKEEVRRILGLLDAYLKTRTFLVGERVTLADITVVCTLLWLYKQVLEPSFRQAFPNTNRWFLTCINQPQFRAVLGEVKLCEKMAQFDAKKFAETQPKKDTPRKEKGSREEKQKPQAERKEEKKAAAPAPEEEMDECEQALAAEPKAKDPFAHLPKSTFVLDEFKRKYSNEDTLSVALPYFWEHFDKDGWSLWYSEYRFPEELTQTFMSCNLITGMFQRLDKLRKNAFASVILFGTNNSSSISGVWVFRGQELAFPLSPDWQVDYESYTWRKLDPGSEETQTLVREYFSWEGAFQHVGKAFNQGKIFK

This is one part of the list.

Compound in the first experiment: CNC(=O)c1ccc(Nc2ncc(C(F)(F)F)c(NCc3nccnc3N(C)S(C)(=O)=O)n2)cc1 [defactinib]
As to the kind of experiment: log2 fold change, soluble protein after heating vs DMSO (PISA); higher = thermal stabilisation; K562 lysate, 10 uM; active = over 0.2 and 3.5 SD of the protein, either way, in both replicates (recomputed). The method, boiled down:
(§1)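 The values are log-two fold changes in thermal stability compared with solvent controls and come from duplicates. They were obtained by TMTpro 16plex LC-MS/MS, with channel sums equalised, on the supernatant after 21,000xg for 90 min. That supernatant came from crude K562 extract at 1 mg/mL protein treated with 10 μM compound for 30 min, heated for 3 min across 48°C-58°C, pooled and brought to 0.5% NP-40 at 4°C.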
For EEF1A1P5 (UniProt Q5VTE0), the log2 fold change was inactive: -0.015.
On the same count and under the same terms, with DRG2 (UniProt P55039) the figure was inactive: -0.01; with DTYMK (UniProt P23919), inactive: -0.006.
With EARS2 (UniProt Q5JPH6), the log2 fold change is inactive: 0.037.
Turning to EIF1 (UniProt P41567), the log2 fold change was inactive: -0.013.
The same measure, in the same setting: with EEF2 (UniProt P13639) the figure was inactive: -0.009; with EIF1AX (UniProt P47813), inactive: -0.024.
Same read-out and setting: with ECH1 (UniProt Q13011) the figure was inactive: 0.004.
Still for that read-out and setting: with EEF1B2 (UniProt P24534) the figure was inactive: -0.009; with DUSP9 (UniProt Q99956), inactive: -0.222; with ECHDC3 (UniProt Q96DC8), inactive: 0.138.
For DR1 (UniProt Q01658), the log2 fold change was inactive: 0.006.
Turning to DPP7 (UniProt Q9UHL4), the log2 fold change was inactive: 0.028.
Regarding DYNLT1 (UniProt P63172), the log2 fold change was inactive: -0.002.
Take DPH2 (UniProt Q9BQC3): the log2 fold change was inactive: 0.02.
As to DUSP23 (UniProt Q9BVJ7), the log2 fold change was inactive: -0.078.
In the case of DYNC1H1 (UniProt Q14204), the log2 fold change is inactive: 0.026.
The same measure, in the same setting: with EFL1 (UniProt Q7Z2Z2) the figure was inactive: -0.006; with DPY19L1, A0A1B0GW05, inactive: 0.004; with EDF1 (UniProt O60869), inactive: -0.012.
Still for that read-out and setting: with EHMT2 (UniProt A2ABF8) the figure was inactive: -0.01; with E2F3 (UniProt O00716), inactive: 0.053.
On to EEF1AKMT2, A0A494BZY7, for which the log2 fold change was inactive: -0.04.
On the same count and under the same terms, with E2F4 (UniProt Q16254) the figure was inactive: 0.033.
On to DUSP12 (UniProt Q9UNI6), for which the log2 fold change is inactive: -0.025.
Consider DUT (UniProt P33316), for which the log2 fold change is inactive: -0.022.
DSG2 (UniProt Q14126): the log2 fold change was inactive: 0.048.
Same read-out and setting: with EIF1AD (UniProt Q8N9N8) the figure was inactive: -0.021; with DPF2 (UniProt Q92785), inactive: 0.033; with EEF1AKNMT (UniProt Q8N6R0), inactive: -0.012.
As to EDEM3 (UniProt Q9BZQ6), the log2 fold change was inactive: -0.021.
With EEF1G isoform 2 (UniProt P26641), the log2 fold change was inactive: 0.008.

Compound in another experiment: CNc1nc(-c2ccc3c(N)n[nH]c3c2)cc(N2C[C@@H](C(=O)NC3CCCCC3)CC[C@H]2C)n1
The experiment is described as above. In outline: as §1
As for EEF1A1P5 (UniProt Q5VTE0), the log2 fold change was inactive: -0.218.
For the target DRG2 (UniProt P55039), the log2 fold change was inactive: -0.005.
The same measure, in the same setting: with DTYMK (UniProt P23919) the figure was inactive: 0.04; with EARS2 (UniProt Q5JPH6), inactive: 0.009.
Take EIF1 (UniProt P41567): the log2 fold change was inactive: -0.02.
As to EEF2 (UniProt P13639), the log2 fold change was inactive: -0.007.
The same measure, in the same setting: with EIF1AX (UniProt P47813) the figure was inactive: -0.03; with ECH1 (UniProt Q13011), inactive: -0.004.
As to EEF1B2 (UniProt P24534), the log2 fold change is inactive: -0.005.
DUSP9 (UniProt Q99956): the log2 fold change is inactive: -0.042.
Consider ECHDC3 (UniProt Q96DC8), for which the log2 fold change is inactive: -0.003.
Turning to DR1 (UniProt Q01658), the log2 fold change is inactive: 0.031.
DPP7 (UniProt Q9UHL4): the log2 fold change was inactive: 0.019.
On to DYNLT1 (UniProt P63172), for which the log2 fold change is inactive: 0.008.
Same read-out and setting: with DPH2 (UniProt Q9BQC3) the figure was inactive: 0.031; with DUSP23 (UniProt Q9BVJ7), inactive: -0.025; with DYNC1H1 (UniProt Q14204), inactive: -0.035.
The same measure, in the same setting: with EFL1 (UniProt Q7Z2Z2) the figure was inactive: -0.018.
DPY19L1, A0A1B0GW05: the log2 fold change was inactive: -0.056.
Same read-out and setting: with EDF1 (UniProt O60869) the figure was inactive: 0.121.
EHMT2 (UniProt A2ABF8): the log2 fold change is inactive: 0.011.
Consider E2F3 (UniProt O00716), for which the log2 fold change was inactive: -0.042.
Consider EEF1AKMT2, A0A494BZY7, for which the log2 fold change was inactive: -0.015.
On to E2F4 (UniProt Q16254), for which the log2 fold change is inactive: -0.016.
On to DUSP12 (UniProt Q9UNI6), for which the log2 fold change is inactive: 0.032.
Same read-out and setting: with DUT (UniProt P33316) the figure was inactive: 0.013.
On to DSG2 (UniProt Q14126), for which the log2 fold change was inactive: -0.039.
The same measure, in the same setting: with EIF1AD (UniProt Q8N9N8) the figure was inactive: 0.034; with DPF2 (UniProt Q92785), inactive: 0.064; with EEF1AKNMT (UniProt Q8N6R0), inactive: -0.015.
Regarding EDEM3 (UniProt Q9BZQ6), the log2 fold change is inactive: -0.019.
For the target EEF1G isoform 2 (UniProt P26641), the log2 fold change is inactive: -0.028.

Compound in another experiment: COC(=O)N[C@@H](C)CNc1nccc(-c2cn(C(C)C)nc2-c2cc(Cl)cc(NS(C)(=O)=O)c2F)n1 [encorafenib]
The description is as above. The method, boiled down:
as §1
In the case of EEF1A1P5 (UniProt Q5VTE0), the log2 fold change was inactive: -0.027.
As for DRG2 (UniProt P55039), the log2 fold change was inactive: -0.001.
Still for that read-out and setting: with DTYMK (UniProt P23919) the figure was inactive: -0.061; with EARS2 (UniProt Q5JPH6), inactive: 0.026; with EIF1 (UniProt P41567), inactive: -0.017.
For the target EEF2 (UniProt P13639), the log2 fold change is inactive: -0.023.
Same read-out and setting: with EIF1AX (UniProt P47813) the figure was inactive: -0.018; with ECH1 (UniProt Q13011), inactive: -0.033; with EEF1B2 (UniProt P24534), inactive: -0.029.
Regarding DUSP9 (UniProt Q99956), the log2 fold change is inactive: -0.024.
Turning to ECHDC3 (UniProt Q96DC8), the log2 fold change is inactive: -0.06.
For the target DR1 (UniProt Q01658), the log2 fold change was inactive: 0.035.
DPP7 (UniProt Q9UHL4): the log2 fold change is inactive: 0.008.
On the same count and under the same terms, with DYNLT1 (UniProt P63172) the figure was inactive: 0.022; with DPH2 (UniProt Q9BQC3), inactive: -0.044; with DUSP23 (UniProt Q9BVJ7), inactive: 0.033.
As for DYNC1H1 (UniProt Q14204), the log2 fold change is inactive: 0.01.
Still for that read-out and setting: with EFL1 (UniProt Q7Z2Z2) the figure was inactive: 0.003; with DPY19L1, A0A1B0GW05, inactive: 0.03; with EDF1 (UniProt O60869), inactive: -0.032.
Regarding EHMT2 (UniProt A2ABF8), the log2 fold change was inactive: 0.025.
Turning to E2F3 (UniProt O00716), the log2 fold change is inactive: -0.034.
Still for that read-out and setting: with EEF1AKMT2, A0A494BZY7 the figure was inactive: -0.016.
Regarding E2F4 (UniProt Q16254), the log2 fold change is inactive: 0.044.
Consider DUSP12 (UniProt Q9UNI6), for which the log2 fold change is inactive: 0.014.
Turning to DUT (UniProt P33316), the log2 fold change is inactive: -0.026.
DSG2 (UniProt Q14126): the log2 fold change was inactive: -0.011.
On to EIF1AD (UniProt Q8N9N8), for which the log2 fold change was inactive: 0.01.
Turning to DPF2 (UniProt Q92785), the log2 fold change is inactive: 0.057.
Regarding EEF1AKNMT (UniProt Q8N6R0), the log2 fold change was inactive: 0.005.
As for EDEM3 (UniProt Q9BZQ6), the log2 fold change was inactive: 0.02.
Regarding EEF1G isoform 2 (UniProt P26641), the log2 fold change is inactive: -0.027.
